The values below come from patent publication US20200332005A1.

The target in assay [1] is cyno CD73 (cyno). Nature of the assay: in vitro biochemical assay (FIG. 21).
Assay [2] has as its target N-terminal of CD73. Nature of the assay: plate binding assay, axis Binding activity (OD450) against Ab (µg/ml); panel Binding to N-terminal of CD73.
Assay [3] has as its target cyno CD73 (cyno). Nature of the assay: in vitro biochemical assay.

Results are given in words; binding and its absence hold for the method and conditions named. For part of these data: Binding calls can cover weak binding; strength is not graded here.

B1: Hu101-28 (antibody, V domains shown)
VH: EVQLQESGPGLVKPSETLSLTCAVSGYSITSGYYWNWIRQPPGKKLEWMGYINYGGSNGYNPSLKSRITISRDTSKNQFSLKLSSVTAADTAVYYCARDYDAYYEALDDWGQGTTVTVSS
VL: EIVLSQSPATLSLSPGERATLSCRASSRVNYMHWYQQKPGQSPRPWISATSNLASGVPARFSGSGSGTSYTLTISSLEPEDFAVYYCQQWSSNPPTFGGGTKVEIK
As to B1, the binding result in assay [1] is “binds”; in assay [2], “no binding (tested: about 3 µg/ml)”; in assay [3] it was “binds”.
